According to the supplement of paper PMC12024529:
Counter-ions that a name gives are not always drawn. The list shows a part of the results. Plates or batches differ in their baseline, so values are only roughly comparable.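 HEK293 lines stably express B-domain-deleted factor VIII fused to Gaussia luciferase, wild type or a misfolding-prone missense mutant. Scores equal triplicate-well mean luminescence minus DMSO mean, divided by DMSO standard deviation; scores of 2 or higher are hits. Low scores may indicate reduced secretion or worse cell viability.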

Tests used:
HEK293 WT BDD-FVIII-Gluc = assay: secreted FVIII-Gluc luciferase Z-score vs DMSO control; higher = more FVIII-Gluc secretion; conditions: 5 µM; 24 h
[1] = tested on: HEK293 p.N1941S BDD-FVIII-Gluc; assay: as above; conditions: 5 µM; 24 h

| Compound | secreted FVIII-Gluc luciferase Z-score (HEK293 WT BDD-FVIII-Gluc) | secreted FVIII-Gluc luciferase Z-score [1] |
| --- | --- | --- |
| Cc1[nH]c(=O)c(C#N)cc1-c1ccncc1 [Milrinone (Primacor)] | active: 2.64 | inactive: -1.34 |
| C[C@@H]1C[C@H]2[C@@H]3C[C@H](F)C4=CC(=O)C=C[C@]4(C)[C@@]3(F)[C@@H](O)C[C@]2(C)[C@@]1(O)C(=O)CO [Flumethasone] | active: 15.8 | active: 5.64 |
| CCc1cccc2c3c([nH]c12)C(CC)(CC(=O)O)OCC3 (centres undefined) [Etodolac (Lodine)] | inactive: -4.59 | inactive: -0.274 |
| CN1[C@@H]2CC[C@H]1C[C@@H](OC(c1ccccc1)c1ccccc1)C2 [Benztropine mesylate] | inactive: -0.837 | inactive: -3.65 |
| CCN(CC)CCOc1ccc(C(=C(Cl)c2ccccc2)c2ccccc2)cc1 [Clomifene citrate (Serophene)] | inactive: 1.03 | inactive: -2.9 |
| Nc1ccc(/N=N/c2ccccc2)c(N)n1 [Phenazopyridine HCl] | inactive: -0.425 | inactive: 0.764 |
| CCOC(=O)[C@H](CCc1ccccc1)N[C@@H](C)C(=O)N1Cc2cc(OC)c(OC)cc2C[C@H]1C(=O)O [Moexipril HCl] | inactive: 0.805 | inactive: 0.0615 |
| CC(C)OC(=O)C(C(=O)OC(C)C)=C1SC=CS1 [Malotilate] | inactive: 0.33 | inactive: -2.82 |
| Nc1nc(O)c2ncn(CCC(CO)CO)c2n1 [Penciclovir] | inactive: 1.42 | inactive: -0.886 |
| Clc1ccc(COC(Cn2ccnc2)c2ccc(Cl)cc2Cl)c(Cl)c1 (centres undefined) [Miconazole nitrate] | inactive: -3.09 | inactive: -3.7 |
| COc1cc(/C=C/C(=O)CC(=O)/C=C/c2ccc(O)c(OC)c2)ccc1O [Curcumin] | inactive: -2.74 | inactive: -0.641 |
| CCCCCCNC(=O)n1cc(F)c(=O)[nH]c1=O [Carmofur] | inactive: -2.57 | inactive: -0.859 |
| COc1cc2c(cc1O)CC[C@@H]1[C@@H]2CC[C@]2(C)[C@@H](O)CC[C@@H]12 [2-Methoxyestradiol] | inactive: -2.2 | inactive: -6.58 |
| O=C1CCC(N2C(=O)c3ccccc3C2=O)C(=O)N1 (centres undefined) [Thalidomide] | inactive: -2.34 | inactive: 0.397 |
| CCN(CCCc1ccccc1)CCCc1ccccc1 [Alverine Citrate] | inactive: -1.13 | inactive: -0.108 |
| C[C@]12CCC3=C4CCC(=O)C=C4CC[C@H]3[C@@H]1CC[C@@]2(O)CC#N [Dienogest] | inactive: -0.623 | inactive: -0.286 |
| CN(C/C=C/C#CC(C)(C)C)Cc1cccc2ccccc12 [Terbinafine (Lamisil, Terbinex)] | inactive: -1.37 | inactive: 0.187 |
| Nc1[nH]cnc2ncnc1-2 [Adenine hydrochloride] | inactive: -1.53 | inactive: -0.999 |
| COc1ccc2cc(CCC(C)=O)ccc2c1 [Nabumetone] | inactive: -1.05 | inactive: -0.901 |
| CCOC(=O)n1ccn(C)c1=S [Carbimazole] | inactive: -0.472 | inactive: -0.111 |
| O=C1c2c(O)ccc(O)c2C(=O)c2c(NCCNCCO)ccc(NCCNCCO)c21 [Mitoxantrone Hydrochloride] | inactive: -5.68 | inactive: -7.82 |
| C[C@@H]1O[C@@H]1P(=O)(O)O [Fosfomycin Tromethamine] | inactive: -0.707 | inactive: 0.315 |
| CS(=O)(=O)c1ccc([C@@H](O)[C@@H](CF)NC(=O)C(Cl)Cl)cc1 [Florfenicol] | inactive: -0.949 | inactive: -0.669 |
| CC1=C(C(=O)O)N2C(=O)[C@@H](NC(=O)[C@H](N)c3ccccc3)[C@H]2SC1 [Cephalexin (Cefalexin)] | inactive: -2.97 | inactive: 0.231 |
| NC(=O)N1c2ccccc2CC(=O)c2ccccc21 [Oxcarbazepine] | inactive: -1.31 | inactive: 0.151 |
| CC(C)[C@H](N)C(=O)OCCOCn1cnc2c(=O)nc(N)[nH]c21 [Valaciclovir HCl] | inactive: -4.74 | inactive: -1.36 |
| C/C(O)=C(\C#N)C(=O)Nc1ccc(C(F)(F)F)cc1 [Teriflunomide] | inactive: -1.13 | inactive: 0.227 |

No new results follow: entries from further up.

| Compound | secreted FVIII-Gluc luciferase Z-score (HEK293 WT BDD-FVIII-Gluc) | secreted FVIII-Gluc luciferase Z-score [1] |
| --- | --- | --- |
| Nc1nc(O)c2ncn(CCC(CO)CO)c2n1 [Penciclovir] | inactive: 1.42 | inactive: -0.886 |
| Clc1ccc(COC(Cn2ccnc2)c2ccc(Cl)cc2Cl)c(Cl)c1 (centres undefined) [Miconazole nitrate] | inactive: -3.09 | inactive: -3.7 |
